Laboratory results from article PMC10096250, “Combined action of albumin and heparin regulates lipoprotein lipase oligomerization, stability, and ligand interactions” (PLOS ONE, 2023).
These are yes or no findings as the source states them, for the method shown. Some binding calls cover weakened binding; strength is not graded here. Blank lines part the entries; values can stand above or below the molecule they belong to.

Amino acid sequences for entries named in this document (tags omitted). Residues count along the entry.
UniProt P02769, residues 25-607: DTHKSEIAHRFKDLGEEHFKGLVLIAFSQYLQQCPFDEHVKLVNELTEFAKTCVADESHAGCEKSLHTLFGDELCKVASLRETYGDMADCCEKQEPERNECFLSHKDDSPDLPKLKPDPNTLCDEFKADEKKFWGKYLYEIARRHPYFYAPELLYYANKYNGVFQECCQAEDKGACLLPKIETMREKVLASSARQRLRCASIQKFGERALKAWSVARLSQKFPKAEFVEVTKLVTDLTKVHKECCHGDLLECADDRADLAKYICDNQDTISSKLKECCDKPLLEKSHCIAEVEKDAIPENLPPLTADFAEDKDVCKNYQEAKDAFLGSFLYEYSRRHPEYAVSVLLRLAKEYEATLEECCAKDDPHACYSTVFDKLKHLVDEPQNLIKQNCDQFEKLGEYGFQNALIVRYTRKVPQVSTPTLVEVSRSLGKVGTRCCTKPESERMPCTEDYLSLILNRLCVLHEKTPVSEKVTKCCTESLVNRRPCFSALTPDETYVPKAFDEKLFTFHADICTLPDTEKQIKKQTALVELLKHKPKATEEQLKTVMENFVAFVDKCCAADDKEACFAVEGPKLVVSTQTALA

T1: Human GPIHBP1 (human) (UniProt Q8IV16)
T1 sequence: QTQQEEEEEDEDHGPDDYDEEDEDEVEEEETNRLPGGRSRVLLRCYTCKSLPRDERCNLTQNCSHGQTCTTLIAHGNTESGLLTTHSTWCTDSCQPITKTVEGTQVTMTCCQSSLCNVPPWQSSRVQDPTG

T2: Bovine lipoprotein lipase (bovine), P11151
T2 chain: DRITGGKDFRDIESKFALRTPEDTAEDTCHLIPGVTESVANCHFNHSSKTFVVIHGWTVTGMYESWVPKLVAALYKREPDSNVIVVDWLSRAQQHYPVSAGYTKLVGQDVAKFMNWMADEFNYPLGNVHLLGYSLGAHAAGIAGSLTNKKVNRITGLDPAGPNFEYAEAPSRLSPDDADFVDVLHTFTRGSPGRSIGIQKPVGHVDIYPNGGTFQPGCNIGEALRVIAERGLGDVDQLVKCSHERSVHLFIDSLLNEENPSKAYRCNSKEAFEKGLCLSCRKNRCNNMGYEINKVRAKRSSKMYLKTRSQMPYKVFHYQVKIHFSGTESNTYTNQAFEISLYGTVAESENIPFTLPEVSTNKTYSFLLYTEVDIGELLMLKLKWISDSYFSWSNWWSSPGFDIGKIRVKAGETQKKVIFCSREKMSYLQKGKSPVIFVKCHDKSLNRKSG

B1: Bovine lipoprotein lipase, P11151 29-478 (enzyme)
chain: T2 chain
B2: Bovine lipoprotein lipase (enzyme, UniProt P11151 29-478, looked up)
chain: T2 chain
notes: lipoprotein lipase (LPL), bovine, purified from bovine milk; In the RICS experiments 10 nM of the LPL carried ATTO610 (NHS ester labelling) and 190 nM was unlabelled; it says that most experiments were done with bovine LPL; also called bLPL; bovine LPL; source: purified from bovine milk

Experiments:
Human GPIHBP1 (human) = biological target: T1, Human GPIHBP1 (human); assay: SPR; reference surface of a3: BSA flowed over amine-coupled GPIHBP1 without bLPL; 20 mM HEPES, 150 mM NaCl, pH 7.4; 25°C; both purified
[1] = biological target: B2; assay: SPR; Biacore 3000; bLPL (1.7 fmol/mm2) held on immobilised anti-LPL monoclonal antibody 5D2; BSA flowed over; 20 mM HEPES, 150 mM NaCl, pH 7.4; 25°C; both purified
[2] = biological target: T2, Bovine lipoprotein lipase (bovine), …; assay: raster image correlation spectroscopy (RICS); 200 nM LPL (10 nM LPL-ATTO610 + 190 nM unlabelled) with 50 or 2 mg/ml BSA, no heparin; 20 mM HEPES pH 7.4, 150 mM NaCl; room temperature, up to 2 h; nsTEM of unlabelled LPL in like conditions; both purified; conditions: remark: other sources report otherwise
[3] = biological target: T2, Bovine lipoprotein lipase (bovine), …; assay: raster image correlation spectroscopy (RICS); 200 nM LPL (10 nM LPL-ATTO610 + 190 nM unlabelled) with 10 IU/ml heparin, no BSA; 20 mM HEPES pH 7.4, 150 mM NaCl; room temperature; nsTEM of unlabelled LPL in like conditions; both purified; conditions: remark: other sources report otherwise
[4] = biological target: B2; assay: raster image correlation spectroscopy (RICS); 200 nM LPL (10 nM LPL-ATTO610 + 190 nM unlabelled) with BSA (50 or 2 mg/ml) and 10 IU/ml heparin added after 15 min; 20 mM HEPES pH 7.4, 150 mM NaCl; room temperature; nsTEM of unlabelled LPL in like conditions; both purified
[5] = biological target: B2; assay: raster image correlation spectroscopy (RICS); 10 nM LPL with 50 mg/ml BSA, no heparin; 20 mM HEPES pH 7.4, 150 mM NaCl; room temperature; both purified

- binding (Human GPIHBP1 (human)): no binding
- binding [1]: binds weakly
Molecule: Bovine serum albumin (from UniProt P02769 25-607)

Molecule: B1
- binding [2]: binds
- binding [3]: binds

Molecule: B2
- binding [4]: no binding (condition: with both BSA and 10 IU/ml heparin)
- binding [5]: binds weakly
